Test results as given in patent US11319348B2, “Synthetic beta-amyloid peptides capable of forming stable antigenic oligomers” (The Regents of the University of California, priority 2016, dated 2022).

Tested on: crosslinked trimer 4
Assay: crystal violet absorbance and fluorescence with Aβ trimer
Assay type: binding

CN(C)c1ccc(C(=C2C=CC(=[N+](C)C)C=C2)c2ccc(N(C)C)cc2)cc1 [crystal violet]
light emission (bound to an Aβ trimer, when stimulated): around 640 nm
peak absorbance (bound within an Aβ trimer): around 600 nm
peak absorbance (crystal violet in solution, no trimer): around 540 nm
